Experimental data taken from PMC6629185.
No constants are given. Whether binding was seen depends on the method and setting. Binding seen in cells or lysates may run through a third protein. Some binding calls cover weakened binding; strength is not graded here.

Chains of the proteins cited; added tags and fusions are not shown.
UniProt Q96KQ7: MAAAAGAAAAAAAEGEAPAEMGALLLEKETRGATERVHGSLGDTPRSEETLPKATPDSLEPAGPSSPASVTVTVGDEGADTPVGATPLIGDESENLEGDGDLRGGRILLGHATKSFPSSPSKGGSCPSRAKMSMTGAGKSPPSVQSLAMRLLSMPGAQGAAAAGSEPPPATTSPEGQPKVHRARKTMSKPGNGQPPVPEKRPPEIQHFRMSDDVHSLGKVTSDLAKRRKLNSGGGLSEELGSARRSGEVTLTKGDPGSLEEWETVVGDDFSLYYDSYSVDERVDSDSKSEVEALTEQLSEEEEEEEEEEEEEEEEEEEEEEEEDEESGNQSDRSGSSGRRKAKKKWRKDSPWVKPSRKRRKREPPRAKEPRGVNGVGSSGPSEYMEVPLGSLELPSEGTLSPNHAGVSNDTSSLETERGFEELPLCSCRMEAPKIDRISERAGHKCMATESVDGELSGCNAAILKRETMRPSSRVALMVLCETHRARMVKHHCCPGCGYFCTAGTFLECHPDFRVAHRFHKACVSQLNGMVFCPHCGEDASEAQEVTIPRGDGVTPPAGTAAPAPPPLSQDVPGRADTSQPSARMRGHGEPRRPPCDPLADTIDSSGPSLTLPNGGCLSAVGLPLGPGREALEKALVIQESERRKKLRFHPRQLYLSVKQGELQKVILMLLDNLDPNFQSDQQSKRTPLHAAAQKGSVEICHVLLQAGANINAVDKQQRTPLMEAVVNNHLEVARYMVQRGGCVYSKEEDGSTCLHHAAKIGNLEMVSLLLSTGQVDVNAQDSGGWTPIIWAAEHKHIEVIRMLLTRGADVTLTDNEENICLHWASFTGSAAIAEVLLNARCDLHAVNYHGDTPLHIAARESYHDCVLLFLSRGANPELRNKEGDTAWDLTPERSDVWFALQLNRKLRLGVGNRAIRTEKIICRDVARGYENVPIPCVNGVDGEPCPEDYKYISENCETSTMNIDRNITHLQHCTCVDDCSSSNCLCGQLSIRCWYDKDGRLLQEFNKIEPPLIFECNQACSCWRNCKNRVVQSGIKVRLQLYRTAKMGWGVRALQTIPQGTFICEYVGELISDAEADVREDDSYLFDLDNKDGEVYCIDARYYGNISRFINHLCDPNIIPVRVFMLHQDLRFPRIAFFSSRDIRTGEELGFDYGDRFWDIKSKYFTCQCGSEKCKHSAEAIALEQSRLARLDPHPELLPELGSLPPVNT
UniProt Q13547: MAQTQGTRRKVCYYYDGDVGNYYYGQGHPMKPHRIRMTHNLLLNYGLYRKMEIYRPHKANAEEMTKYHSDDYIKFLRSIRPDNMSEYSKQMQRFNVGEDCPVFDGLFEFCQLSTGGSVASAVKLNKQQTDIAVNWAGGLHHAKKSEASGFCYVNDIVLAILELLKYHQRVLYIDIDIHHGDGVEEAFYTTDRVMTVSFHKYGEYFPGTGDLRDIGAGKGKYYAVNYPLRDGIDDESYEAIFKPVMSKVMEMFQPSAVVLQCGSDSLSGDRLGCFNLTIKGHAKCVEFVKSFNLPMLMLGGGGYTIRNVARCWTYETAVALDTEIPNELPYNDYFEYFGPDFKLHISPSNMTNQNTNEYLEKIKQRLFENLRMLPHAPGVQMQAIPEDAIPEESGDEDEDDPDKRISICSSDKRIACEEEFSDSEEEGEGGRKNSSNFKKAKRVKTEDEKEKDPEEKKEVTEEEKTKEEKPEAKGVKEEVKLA
UniProt Q92769: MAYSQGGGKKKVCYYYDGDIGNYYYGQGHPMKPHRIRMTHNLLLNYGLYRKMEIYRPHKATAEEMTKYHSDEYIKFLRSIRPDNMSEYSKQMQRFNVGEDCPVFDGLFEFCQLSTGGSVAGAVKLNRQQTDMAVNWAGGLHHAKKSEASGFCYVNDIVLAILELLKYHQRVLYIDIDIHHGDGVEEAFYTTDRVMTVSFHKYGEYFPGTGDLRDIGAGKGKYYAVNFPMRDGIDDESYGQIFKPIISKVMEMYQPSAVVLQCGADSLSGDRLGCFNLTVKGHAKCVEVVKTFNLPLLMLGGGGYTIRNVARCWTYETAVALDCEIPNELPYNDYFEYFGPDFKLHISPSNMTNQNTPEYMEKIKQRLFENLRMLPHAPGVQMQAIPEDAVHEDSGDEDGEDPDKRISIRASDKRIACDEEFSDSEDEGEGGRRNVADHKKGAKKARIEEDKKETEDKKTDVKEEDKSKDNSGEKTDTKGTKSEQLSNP
UniProt O15379: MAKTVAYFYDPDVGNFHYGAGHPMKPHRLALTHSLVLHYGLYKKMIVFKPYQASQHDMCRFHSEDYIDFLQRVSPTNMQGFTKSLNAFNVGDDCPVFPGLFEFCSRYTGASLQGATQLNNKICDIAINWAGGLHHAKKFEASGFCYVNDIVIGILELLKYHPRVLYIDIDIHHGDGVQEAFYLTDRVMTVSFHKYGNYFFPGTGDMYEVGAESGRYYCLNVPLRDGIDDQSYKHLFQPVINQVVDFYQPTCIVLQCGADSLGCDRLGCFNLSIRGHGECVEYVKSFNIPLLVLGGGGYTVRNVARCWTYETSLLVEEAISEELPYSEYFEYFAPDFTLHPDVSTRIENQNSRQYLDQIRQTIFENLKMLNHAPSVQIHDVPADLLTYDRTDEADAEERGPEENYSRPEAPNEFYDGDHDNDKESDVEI

Target: T1, Snail2 (UniProt O43623)
T1 sequence: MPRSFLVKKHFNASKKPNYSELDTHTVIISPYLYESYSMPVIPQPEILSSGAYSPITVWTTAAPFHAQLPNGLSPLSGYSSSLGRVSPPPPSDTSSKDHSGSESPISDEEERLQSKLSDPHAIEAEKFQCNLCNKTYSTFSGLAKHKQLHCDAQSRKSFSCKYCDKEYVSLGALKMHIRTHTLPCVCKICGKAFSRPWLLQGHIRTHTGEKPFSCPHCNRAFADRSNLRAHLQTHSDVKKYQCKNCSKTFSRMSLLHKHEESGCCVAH
Assay: co-IP; A549-Snail2 cell extracts immunoprecipitated with Snail2 antibodies; bound endogenous G9a and HDACs examined by western blotting

Row | binding | Substance
1 | binds | G9a (from UniProt Q96KQ7 1-1210) (enzyme)
2 | binds | HDAC1 (from UniProt Q13547 1-482) (enzyme)
3 | binds | HDAC2 (from UniProt Q92769 1-488) (enzyme)
4 | binds | HDAC3 (from UniProt O15379 1-428) (enzyme)
